Patent publication US9150581B2, “Nicotinic receptor compounds” (priority 2011, dated 2015)
Where “and” joins values, the source holds several entries; their conditions need not be identical. Identical values can stand only once. The match of structure and compound is tentative.

How the values were obtained:
mice [1] = test: Antagonism of nicotine antinociception, tail-flick; format: in vivo, mouse; conditions: mice pretreated sc 10 min before nicotine 2.5 mg/kg sc
mice [2] = test: Antagonism of nicotine antinociception, hot-plate; format: in vivo, mouse; conditions: mice pretreated sc 10 min before nicotine 2.5 mg/kg sc

Fc1ncc(C2CC3CCC2N3)cc1-c1ccccc1 (centres unmarked)
AD50 Tail-Flick (mice [1]): 0.5 mg/kg and 1 mg/kg | AD50 Hot-Plate (mice [2]): 1.2 mg/kg and 2.4 mg/kg
